Results are given in words; binding and its absence hold for the method and conditions named. Some results given as binding are weak or reduced against the parent protein; the word gives no strength.
How the values were obtained:
[1] = target: human PD1 expressed on the surface of CHO cells (human) (UniProt Q15116); test: blocking assay on cells: biotin-labelled human PD-L2 binding to PD1-expressing CHO cells, Europium-streptavidin fluorescence, % inhibition against antibody concentration [E]
[2] = target: human PD1 expressed on the surface of CHO cells (human) (UniProt Q15116); test: blocking assay on cells: biotin-labelled human PD-L1 binding to PD1-expressing CHO cells, Europium-streptavidin fluorescence, % inhibition against antibody concentration [B]

The chains behind the UniProt entries cited, without tags or fusion partners. Residues count along the entry.
UniProt Q15116, residues 25-288: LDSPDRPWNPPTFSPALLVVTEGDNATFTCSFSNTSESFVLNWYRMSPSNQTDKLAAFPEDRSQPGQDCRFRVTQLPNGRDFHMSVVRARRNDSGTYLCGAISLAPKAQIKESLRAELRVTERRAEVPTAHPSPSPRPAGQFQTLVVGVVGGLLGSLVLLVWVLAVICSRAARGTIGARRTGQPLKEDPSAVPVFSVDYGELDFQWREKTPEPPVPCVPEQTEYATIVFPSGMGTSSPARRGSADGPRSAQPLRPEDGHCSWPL

binding [1]: binds | binding [2]: binds
B1: PD1-3 (antibody, human IgG4 S228P, kappa, V domains shown)
VH: EVMLVESGGGLVQPGGSLRLSCTASGFTFSKSAMSWVRQAPGKGLEWVAYISGGGGDTYYSSSVKGRFTISRDNAKNSLYLQMNSLRAEDTAVYYCARHSNVNYYAMDYWGQGTLVTVSS
VL: EIVLTQSPATLSLSPGERATMSCRASENIDVSGISFMNWYQQKPGQAPKLLIYVASNQGSGIPARFSGSGSGTDFTLTISRLEPEDFAVYYCQQSKEVPWTFGQGTKLEIKR
notes: Humanized derivative of murine 77E11; the HC is IgG4 (Pro), kappa light chain; also called anti-PD1-3; representative anti-PD1 antibody of the invention

— US20170334995A1 (Boehringer Ingelheim, published 2017)
